Library screen at single concentrations

Protein sequences, listed by entry. Tags and fused reporters are not part of them.
UniProt P9WPC5, whole entry: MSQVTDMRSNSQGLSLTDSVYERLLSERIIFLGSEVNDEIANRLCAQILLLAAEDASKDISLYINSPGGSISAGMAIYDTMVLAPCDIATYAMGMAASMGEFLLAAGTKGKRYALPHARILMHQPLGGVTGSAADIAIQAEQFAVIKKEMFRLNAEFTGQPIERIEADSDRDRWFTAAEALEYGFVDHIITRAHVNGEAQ
UniProt P9WPC3, whole entry partner: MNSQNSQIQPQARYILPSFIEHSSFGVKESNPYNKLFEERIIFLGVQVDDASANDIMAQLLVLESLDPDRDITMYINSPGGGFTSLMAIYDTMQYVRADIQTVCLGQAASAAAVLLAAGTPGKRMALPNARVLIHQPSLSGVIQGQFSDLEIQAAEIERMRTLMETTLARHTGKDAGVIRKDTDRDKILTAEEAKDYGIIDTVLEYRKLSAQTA
UniProt I6X8D2, whole entry: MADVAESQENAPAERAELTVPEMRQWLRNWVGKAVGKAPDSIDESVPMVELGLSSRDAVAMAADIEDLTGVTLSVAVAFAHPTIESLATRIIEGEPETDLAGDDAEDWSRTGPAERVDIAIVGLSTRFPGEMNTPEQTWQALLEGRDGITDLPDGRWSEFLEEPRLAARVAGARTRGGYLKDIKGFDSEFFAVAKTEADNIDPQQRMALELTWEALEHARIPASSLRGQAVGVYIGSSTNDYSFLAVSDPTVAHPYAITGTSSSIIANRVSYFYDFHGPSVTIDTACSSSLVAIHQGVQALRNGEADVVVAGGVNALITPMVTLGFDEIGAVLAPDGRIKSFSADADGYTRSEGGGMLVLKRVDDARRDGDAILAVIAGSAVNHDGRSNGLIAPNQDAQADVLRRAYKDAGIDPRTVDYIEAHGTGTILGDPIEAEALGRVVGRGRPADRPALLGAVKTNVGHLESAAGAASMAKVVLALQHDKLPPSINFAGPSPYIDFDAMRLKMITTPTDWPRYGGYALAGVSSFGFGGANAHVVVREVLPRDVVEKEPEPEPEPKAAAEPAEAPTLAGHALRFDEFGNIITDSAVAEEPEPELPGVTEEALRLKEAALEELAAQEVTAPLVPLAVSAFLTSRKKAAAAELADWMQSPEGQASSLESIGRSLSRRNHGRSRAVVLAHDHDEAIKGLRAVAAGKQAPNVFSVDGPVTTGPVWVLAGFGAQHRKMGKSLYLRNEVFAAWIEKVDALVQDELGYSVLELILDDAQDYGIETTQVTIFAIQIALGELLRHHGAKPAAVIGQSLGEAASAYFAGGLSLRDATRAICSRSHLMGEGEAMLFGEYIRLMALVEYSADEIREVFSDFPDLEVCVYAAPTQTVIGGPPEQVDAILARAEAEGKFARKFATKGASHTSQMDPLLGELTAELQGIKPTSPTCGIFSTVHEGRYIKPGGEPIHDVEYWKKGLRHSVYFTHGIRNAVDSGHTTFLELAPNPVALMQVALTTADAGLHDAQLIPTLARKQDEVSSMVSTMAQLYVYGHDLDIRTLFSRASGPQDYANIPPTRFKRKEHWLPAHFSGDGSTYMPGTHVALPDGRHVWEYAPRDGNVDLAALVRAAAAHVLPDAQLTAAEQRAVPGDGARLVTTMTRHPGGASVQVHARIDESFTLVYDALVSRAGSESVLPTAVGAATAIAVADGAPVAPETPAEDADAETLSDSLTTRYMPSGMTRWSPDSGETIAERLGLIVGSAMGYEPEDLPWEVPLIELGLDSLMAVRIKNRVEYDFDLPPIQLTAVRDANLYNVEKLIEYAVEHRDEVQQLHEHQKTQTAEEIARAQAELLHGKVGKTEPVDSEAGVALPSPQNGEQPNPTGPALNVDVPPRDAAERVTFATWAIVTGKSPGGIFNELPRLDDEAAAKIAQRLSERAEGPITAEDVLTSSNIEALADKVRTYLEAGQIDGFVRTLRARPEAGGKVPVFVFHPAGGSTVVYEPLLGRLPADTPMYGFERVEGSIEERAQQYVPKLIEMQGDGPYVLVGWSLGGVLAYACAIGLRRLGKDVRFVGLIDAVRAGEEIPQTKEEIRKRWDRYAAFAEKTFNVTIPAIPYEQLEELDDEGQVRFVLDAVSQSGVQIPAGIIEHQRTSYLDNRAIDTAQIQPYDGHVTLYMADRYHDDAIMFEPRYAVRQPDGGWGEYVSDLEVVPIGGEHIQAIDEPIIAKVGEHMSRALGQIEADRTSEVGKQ

Data taken from ChEMBL document CHEMBL3988442, “University of Dundee, Small-Polar-MMV Screening Library” (2021).

A: 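Cell assay of Leishmania donovani living inside macrophages; the read-out is not stated. Tested at 30 µM. The record gives no direction; compounds that gave an IC50 in retests scored well above the rest, so higher reads as stronger inhibition. Size under these conditions: about 69,000 compounds, about 1,000 of them at 50% or above in at least one test.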
B: 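Assay of Toxoplasma gondii numbers, read through their beta-galactosidase reporter with a colour substrate. Compounds at 10 µM. The record gives no direction; the compounds picked for IC50 retests had high values, so higher reads as fewer parasites. About 67,000 compounds were tested under these conditions; 0.38% (about 260) showed 50% or more at least once.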
C: 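Protease assay of ClpP1P2, read by the AMC dye that it sets free. Target: ClpP1P2, Mycobacterium tuberculosis (UniProt P9WPC5 and UniProt P9WPC3). Tested at 50 µM. Direction is inferred from only a few compounds that gave an IC50; most scored high, so higher reads as stronger inhibition. Most other retested compounds had strongly negative values. Size under these conditions: about 69,000 compounds, about 10 of them at 50% or above in at least one test.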
D: 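Whole-parasite assay of Trypanosoma brucei over 72 hours; the read-out is not stated. Compounds at 30 µM. Direction is inferred from retests: higher values go with stronger inhibition. Values scatter widely below zero; nearly all retest evidence comes from the higher of the two concentrations used. About 64,000 compounds were tested under these conditions; 1.5% (about 940) showed 50% or more at least once.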
E: 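Polyketide synthase Pks13, Mycobacterium tuberculosis (UniProt I6X8D2). Enzyme assay of the thioesterase domain of polyketide synthase 13; the read-out is not stated. Concentration: 30 µM. The record gives no direction; the compounds picked for IC50 retests had high values, so higher reads as stronger inhibition. About 67,000 compounds were tested under these conditions; 0.46% (about 300) showed 50% or more at least once.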

The filed quantity is “Percent Effect” (%).
How 0% and 100% were set is not recorded. Most values in the screen are low, and negative values occur.
Compounds were drawn at random from those tested, without regard to their results.
Two or more numbers in one place are separate tests of the same structure; such repeats can differ widely.

{"smiles": "Cc1cccc(COc2ccc(NC(=O)C(C)NC(N)=O)c(C)c2)c1", "stereo": "stereo not given", "A": 5.62, "B": -13.66, "C": 0.04863, "D": -3.856, "E": 53.03}
{"smiles": "CCc1cnc(N2Cc3cnc(C(C)(C)C)nc3C2)nc1", "A": -10.72, "B": 4.438, "C": -8.71, "D": -2.555, "E": -45.12}
{"smiles": "COc1ccc(NCc2c[nH]nc2-c2cccnc2)cc1", "A": -18.86, "B": -1.418, "C": -4.557, "D": -22.09, "E": 29.91}
{"smiles": "CN(C)C(=O)CN1CCCC2(CCN(c3ccc(C#N)cn3)C2)C1", "stereo": "stereo not given", "C": 11.04, "E": 3.73}
{"smiles": "NCc1ccc(N2CCN(c3ncccn3)CC2)c(F)c1", "A": -45.04, "B": -6.067, "C": 8.83, "E": 11.09}
{"smiles": "NC(=O)CSc1ccccc1NCc1nc(C2CC2)no1", "A": -4.675, "B": -43.3, "C": 1.393, "D": -49.85, "E": 1.658}
{"smiles": "Cc1cc(C)nc(N2CCC(C(=O)Nc3n[nH]c(CC(C)C)n3)CC2)n1", "A": 3.222, "B": 3.711, "C": -7.591, "D": -17.29, "E": -12.68}
{"smiles": "Cc1ccc(S(=O)(=O)Cc2noc([C@@H]3C[C@@H](O)CN3C(C)C)n2)cc1", "A": 22.51, "B": -1.776, "C": -5.598, "D": -5.002, "E": -35.32}
{"smiles": "O=C(c1cccnc1)N1CCC2(CC1)CC(Oc1ccccc1)CO2", "stereo": "stereo not given", "C": -4.498, "E": -2.93}
{"smiles": "Cc1nn(C)cc1Cn1c(=O)cnc2ccccc21", "A": 29.84, "B": -5.349, "C": -10.83, "D": -6.067, "E": -11.87}
{"smiles": "O=C(c1cccc(CNC/C=C/c2ccccc2)c1)N1CCCC1", "A": 3.169, "B": 7.493, "C": 9.929, "D": -37.51, "E": -8.156}
{"smiles": "COc1c(F)ccc(C(=O)N2CC[C@H](CO)[C@@H](O)C2)c1F", "A": 22.61, "B": -13.12, "C": -0.7716, "D": -14.24, "E": 3.592}
{"smiles": "CC(C)(C)c1nnc(NCc2ccc(F)cc2)o1", "A": -20.76, "B": -5.619, "C": 4.645, "D": -100, "E": 23.13}
{"smiles": "CC(C)c1nn(C)c(N(C)C)c1CNC1CCc2cc(F)ccc21.Cl", "stereo": "stereo not given", "A": 14.4, "B": 10.6, "D": -42.63}
{"smiles": "CCc1[nH]c2c(CNc3cncc(C(=O)OC)n3)cc(C)cc2c1C", "A": -70.43, "B": -8.218, "C": -0.1978, "D": -17.82, "E": 0.2022}
{"smiles": "Cc1ccccc1N1CCCN(C(=O)CCc2cccnc2)CC1", "A": 10.17, "B": 2.714, "C": 8.229, "D": -7.236, "E": -5.355}
{"smiles": "O=S(=O)(c1ccccc1Cl)N1CCc2nc(C3CCNCC3)ncc2C1", "A": 50.23, "B": 0.3406, "C": 3.594, "D": 12.46, "E": -21.96}
{"smiles": "O=C(O)Cc1cccc(-n2ccnc2-c2ccc(Cl)s2)c1", "A": -13.71, "B": -5.741, "C": -9.443, "D": -11.37, "E": -16.61}
{"smiles": "CC(NC(=O)N1CCC1)c1ccc(S(C)(=O)=O)cc1", "stereo": "stereo not given", "A": 14.93, "B": 3.296, "C": -4.02, "D": -51.1, "E": -17.3}
{"smiles": "c1ccc(-n2ccc(CNCC3CCCN3c3cccnn3)n2)cc1", "stereo": "stereo not given", "A": 42.59, "B": 11.24, "C": -1.308, "D": 15.25, "E": -22.98}
{"smiles": "O=C(O)C(F)(F)F.[H][C@@]12OCCN(Cc3ccc(F)cc3)[C@@]1([H])CC[C@H]2OCC1CC1", "A": 24.28, "B": 4.808, "D": 22.68}
{"smiles": "CC(C)CNC(=O)CC1OCCc2ccsc21", "stereo": "stereo not given", "A": -4.11, "B": -4.332, "C": -11.24, "D": -12.83, "E": -0.2784}
{"smiles": "CN(C)S(=O)(=O)N1CCN(C(=O)c2cc(-c3ccccc3)[nH]n2)CC1", "A": -9.187, "B": 4.503, "C": -5.849, "D": -28.18, "E": -0.3191}
{"smiles": "O=C(Cc1csc(-c2ccsc2)n1)N1CCN(c2cnccn2)CC1", "A": 8.045, "B": -24.25, "C": -25.57, "D": 7.984, "E": 15.62}
{"smiles": "O=C(O)C(F)(F)F.O=C(O)C(F)(F)F.c1cncc(N2CCCC3(CN(Cc4cccs4)CCO3)C2)c1", "stereo": "stereo not given", "A": -34.59, "B": -4.895}
{"smiles": "Cn1ccnc1CN1CCCC(Cc2ccnc3ccncc23)CC1.O=CO", "stereo": "stereo not given", "A": "3.326 and 12.26", "B": 9.075, "D": 3.073}
{"smiles": "O=C(NCc1cn2c(n1)CN(Cc1cccnc1)CC2)C1CCC1", "C": -8.499, "E": 32.34}
{"smiles": "Cc1ccccc1C(=O)N1CC[C@@H](N(C)C)[C@@H]1Cc1cnn(C)c1.O=C(O)C(F)(F)F", "A": 38.04, "B": -8.351, "D": -220}
{"smiles": "Cc1noc(C)c1CN1CC[C@@H]2O[C@@H](COCC3CC3)CC[C@@H]21", "C": 3.968, "E": -31.16}